Some of the results follow.
Legend:
Assay in all cases: log2 fold change, soluble protein after heating vs DMSO (PISA); higher = thermal stabilisation; K562 cells, 10 uM, 30 min; active = over 0.2 and 3.5 SD of the protein, either way, in both replicates (recomputed)
[1] = compound: CC[C@@H]1C(=O)N(C)c2cnc(Nc3ccc(C(=O)NC4CCN(C)CC4)cc3OC)nc2N1C1CCCC1
In short: (§1)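 K562 cells at 2×10^6 cells/mL were treated with 10 μM compound for 30 min. Aliquots were heated for 3 min across 48°C-58°C, pooled, and extracted in PBS with 0.5% NP-40 at 4°C; soluble protein was the supernatant after 21,000xg for 90 min. Soluble protein was quantified by TMTpro 16plex LC-MS/MS with channel sums equalised, and reported as log2 fold change in thermal stability against DMSO controls, with values from duplicates.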

Protein sequences, listed by entry. Tags and fused reporters are not part of them. Lines headed by an entry give the natural chain unless they say otherwise; changes in a name come on top.
UniProt Q8NBT0: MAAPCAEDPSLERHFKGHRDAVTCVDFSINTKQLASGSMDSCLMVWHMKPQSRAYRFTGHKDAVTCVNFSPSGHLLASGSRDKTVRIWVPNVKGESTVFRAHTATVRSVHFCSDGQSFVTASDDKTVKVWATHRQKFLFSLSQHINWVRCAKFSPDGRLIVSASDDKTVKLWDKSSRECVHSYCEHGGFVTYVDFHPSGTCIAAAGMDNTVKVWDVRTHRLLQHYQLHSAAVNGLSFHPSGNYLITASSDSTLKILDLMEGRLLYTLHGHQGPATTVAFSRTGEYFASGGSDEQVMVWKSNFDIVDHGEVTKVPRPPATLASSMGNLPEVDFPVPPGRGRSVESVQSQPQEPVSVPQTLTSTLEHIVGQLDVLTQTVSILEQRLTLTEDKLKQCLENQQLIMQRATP
UniProt Q8IY26: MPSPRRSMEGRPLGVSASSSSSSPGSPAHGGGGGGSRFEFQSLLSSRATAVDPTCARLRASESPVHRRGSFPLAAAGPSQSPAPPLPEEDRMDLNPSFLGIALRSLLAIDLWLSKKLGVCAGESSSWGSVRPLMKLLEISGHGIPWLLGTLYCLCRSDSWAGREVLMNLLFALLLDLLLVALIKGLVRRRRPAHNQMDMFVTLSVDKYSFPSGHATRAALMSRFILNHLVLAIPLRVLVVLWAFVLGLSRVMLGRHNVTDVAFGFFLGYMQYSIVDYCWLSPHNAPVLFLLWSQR
UniProt Q8WVV4: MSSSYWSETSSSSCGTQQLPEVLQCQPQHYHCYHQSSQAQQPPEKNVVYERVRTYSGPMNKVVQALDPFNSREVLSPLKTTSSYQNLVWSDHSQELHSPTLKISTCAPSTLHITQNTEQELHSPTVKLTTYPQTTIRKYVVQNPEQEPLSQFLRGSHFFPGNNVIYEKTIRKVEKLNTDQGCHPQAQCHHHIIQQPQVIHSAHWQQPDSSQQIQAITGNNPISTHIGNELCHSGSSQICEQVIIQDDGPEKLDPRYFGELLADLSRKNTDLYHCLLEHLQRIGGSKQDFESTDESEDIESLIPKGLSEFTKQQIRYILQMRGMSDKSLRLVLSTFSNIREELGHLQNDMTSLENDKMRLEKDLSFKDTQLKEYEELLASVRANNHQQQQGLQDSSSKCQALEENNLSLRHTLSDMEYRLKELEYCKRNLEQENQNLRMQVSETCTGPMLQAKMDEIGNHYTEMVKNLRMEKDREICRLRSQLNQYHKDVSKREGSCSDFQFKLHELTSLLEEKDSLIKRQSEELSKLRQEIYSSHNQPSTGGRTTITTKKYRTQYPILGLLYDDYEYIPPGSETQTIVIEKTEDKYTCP
UniProt P0CAP2, whole entry, looked up: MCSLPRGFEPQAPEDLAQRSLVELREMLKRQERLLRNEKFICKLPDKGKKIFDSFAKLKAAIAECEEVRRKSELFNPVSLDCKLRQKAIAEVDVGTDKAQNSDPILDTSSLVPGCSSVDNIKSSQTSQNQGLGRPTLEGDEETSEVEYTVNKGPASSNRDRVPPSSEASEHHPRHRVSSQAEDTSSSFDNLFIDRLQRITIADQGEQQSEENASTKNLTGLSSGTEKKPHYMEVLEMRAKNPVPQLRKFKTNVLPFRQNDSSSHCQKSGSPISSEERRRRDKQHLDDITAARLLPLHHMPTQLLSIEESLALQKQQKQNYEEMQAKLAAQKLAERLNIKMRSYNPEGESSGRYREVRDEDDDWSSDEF
UniProt P0DPB5: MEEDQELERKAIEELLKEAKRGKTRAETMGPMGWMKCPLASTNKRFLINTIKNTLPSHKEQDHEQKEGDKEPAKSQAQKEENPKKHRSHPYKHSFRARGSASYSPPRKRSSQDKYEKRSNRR
UniProt O00469: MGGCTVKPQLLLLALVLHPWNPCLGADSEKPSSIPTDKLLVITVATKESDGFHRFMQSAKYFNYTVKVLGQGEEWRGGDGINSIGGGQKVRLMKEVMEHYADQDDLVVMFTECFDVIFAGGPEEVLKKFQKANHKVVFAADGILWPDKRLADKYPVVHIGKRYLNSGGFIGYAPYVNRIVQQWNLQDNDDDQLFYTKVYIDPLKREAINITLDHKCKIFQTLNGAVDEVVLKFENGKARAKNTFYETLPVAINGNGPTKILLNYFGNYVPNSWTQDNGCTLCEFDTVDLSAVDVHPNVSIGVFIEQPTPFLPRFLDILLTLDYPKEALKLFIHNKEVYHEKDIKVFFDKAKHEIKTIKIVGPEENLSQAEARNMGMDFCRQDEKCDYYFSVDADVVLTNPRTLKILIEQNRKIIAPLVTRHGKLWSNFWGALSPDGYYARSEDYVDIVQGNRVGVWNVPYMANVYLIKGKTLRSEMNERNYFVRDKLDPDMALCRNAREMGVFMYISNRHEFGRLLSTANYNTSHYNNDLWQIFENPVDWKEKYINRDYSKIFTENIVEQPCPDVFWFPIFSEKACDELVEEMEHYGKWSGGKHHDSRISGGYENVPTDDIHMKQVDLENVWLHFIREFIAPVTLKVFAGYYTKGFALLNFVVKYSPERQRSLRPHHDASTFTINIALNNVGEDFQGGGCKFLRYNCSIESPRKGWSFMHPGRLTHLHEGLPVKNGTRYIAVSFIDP
UniProt Q14181: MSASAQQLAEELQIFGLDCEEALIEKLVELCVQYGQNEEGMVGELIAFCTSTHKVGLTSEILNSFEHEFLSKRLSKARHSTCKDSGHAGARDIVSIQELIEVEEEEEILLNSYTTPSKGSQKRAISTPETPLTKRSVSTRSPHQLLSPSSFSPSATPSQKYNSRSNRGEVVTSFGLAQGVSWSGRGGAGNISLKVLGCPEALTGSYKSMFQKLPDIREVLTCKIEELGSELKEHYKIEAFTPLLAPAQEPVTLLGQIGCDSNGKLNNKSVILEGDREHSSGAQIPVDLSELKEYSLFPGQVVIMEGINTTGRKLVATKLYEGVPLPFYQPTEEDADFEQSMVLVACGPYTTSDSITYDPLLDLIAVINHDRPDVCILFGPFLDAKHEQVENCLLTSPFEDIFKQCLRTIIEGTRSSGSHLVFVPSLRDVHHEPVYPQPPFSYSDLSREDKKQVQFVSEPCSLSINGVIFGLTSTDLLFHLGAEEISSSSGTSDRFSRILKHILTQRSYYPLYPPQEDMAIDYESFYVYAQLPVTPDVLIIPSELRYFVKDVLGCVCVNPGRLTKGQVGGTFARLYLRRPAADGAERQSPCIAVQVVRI
UniProt P54278: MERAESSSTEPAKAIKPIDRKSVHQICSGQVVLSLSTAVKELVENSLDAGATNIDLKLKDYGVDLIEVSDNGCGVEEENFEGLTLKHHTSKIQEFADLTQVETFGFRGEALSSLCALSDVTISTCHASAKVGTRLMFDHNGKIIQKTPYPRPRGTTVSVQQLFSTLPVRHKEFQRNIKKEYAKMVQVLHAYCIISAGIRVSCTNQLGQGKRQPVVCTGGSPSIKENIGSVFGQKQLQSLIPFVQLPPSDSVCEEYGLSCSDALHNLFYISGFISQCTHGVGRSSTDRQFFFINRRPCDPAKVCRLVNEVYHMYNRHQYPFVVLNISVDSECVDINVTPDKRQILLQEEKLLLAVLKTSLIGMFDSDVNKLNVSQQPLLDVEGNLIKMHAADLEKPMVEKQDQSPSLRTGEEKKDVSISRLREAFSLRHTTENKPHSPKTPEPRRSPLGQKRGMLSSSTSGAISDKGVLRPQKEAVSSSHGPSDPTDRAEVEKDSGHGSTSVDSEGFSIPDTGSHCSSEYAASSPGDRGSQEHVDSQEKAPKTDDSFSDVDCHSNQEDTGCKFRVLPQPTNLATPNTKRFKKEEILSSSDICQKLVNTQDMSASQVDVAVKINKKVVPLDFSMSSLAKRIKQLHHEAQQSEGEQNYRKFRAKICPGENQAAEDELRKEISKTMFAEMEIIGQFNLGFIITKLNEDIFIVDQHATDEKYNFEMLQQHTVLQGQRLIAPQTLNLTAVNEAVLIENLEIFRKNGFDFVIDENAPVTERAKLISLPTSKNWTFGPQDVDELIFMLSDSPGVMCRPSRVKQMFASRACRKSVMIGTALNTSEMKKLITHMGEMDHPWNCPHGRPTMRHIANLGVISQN
UniProt Q7Z3K3: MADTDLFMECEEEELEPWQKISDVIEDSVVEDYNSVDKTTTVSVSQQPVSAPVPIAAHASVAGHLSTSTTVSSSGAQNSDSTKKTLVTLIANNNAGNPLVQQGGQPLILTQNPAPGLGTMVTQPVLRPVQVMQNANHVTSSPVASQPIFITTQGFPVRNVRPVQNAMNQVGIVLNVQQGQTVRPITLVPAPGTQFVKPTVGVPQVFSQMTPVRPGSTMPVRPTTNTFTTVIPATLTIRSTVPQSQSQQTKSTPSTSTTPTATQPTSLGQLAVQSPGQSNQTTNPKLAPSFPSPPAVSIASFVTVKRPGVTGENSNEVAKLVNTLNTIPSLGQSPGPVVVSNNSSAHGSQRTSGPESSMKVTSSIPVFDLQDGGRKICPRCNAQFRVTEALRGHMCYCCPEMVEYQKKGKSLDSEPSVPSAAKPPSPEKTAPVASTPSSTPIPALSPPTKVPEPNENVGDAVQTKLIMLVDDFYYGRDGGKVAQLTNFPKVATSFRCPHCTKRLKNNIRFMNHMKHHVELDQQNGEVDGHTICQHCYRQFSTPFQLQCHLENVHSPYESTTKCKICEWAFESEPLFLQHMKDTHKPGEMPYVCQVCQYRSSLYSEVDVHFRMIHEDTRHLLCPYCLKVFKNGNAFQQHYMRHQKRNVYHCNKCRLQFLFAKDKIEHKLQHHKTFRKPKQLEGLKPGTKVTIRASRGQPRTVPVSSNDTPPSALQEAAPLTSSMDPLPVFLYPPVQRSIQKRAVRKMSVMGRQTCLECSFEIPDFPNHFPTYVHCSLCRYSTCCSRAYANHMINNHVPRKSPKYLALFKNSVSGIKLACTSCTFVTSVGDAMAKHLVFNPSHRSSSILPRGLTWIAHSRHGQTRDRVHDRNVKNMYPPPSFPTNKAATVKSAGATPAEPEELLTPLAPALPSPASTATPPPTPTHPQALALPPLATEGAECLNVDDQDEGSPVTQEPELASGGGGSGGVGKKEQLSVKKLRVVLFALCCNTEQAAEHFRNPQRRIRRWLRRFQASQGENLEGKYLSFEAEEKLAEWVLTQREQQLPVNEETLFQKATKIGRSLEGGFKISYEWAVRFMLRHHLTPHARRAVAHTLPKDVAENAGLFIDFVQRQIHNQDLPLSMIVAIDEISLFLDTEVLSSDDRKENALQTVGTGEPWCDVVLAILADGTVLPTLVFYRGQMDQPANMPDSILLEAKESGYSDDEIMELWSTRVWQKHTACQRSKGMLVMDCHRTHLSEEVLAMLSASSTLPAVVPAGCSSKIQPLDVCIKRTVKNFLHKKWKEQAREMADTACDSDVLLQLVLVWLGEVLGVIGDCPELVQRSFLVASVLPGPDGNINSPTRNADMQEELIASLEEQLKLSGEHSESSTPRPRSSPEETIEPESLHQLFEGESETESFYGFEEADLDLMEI
UniProt O60664: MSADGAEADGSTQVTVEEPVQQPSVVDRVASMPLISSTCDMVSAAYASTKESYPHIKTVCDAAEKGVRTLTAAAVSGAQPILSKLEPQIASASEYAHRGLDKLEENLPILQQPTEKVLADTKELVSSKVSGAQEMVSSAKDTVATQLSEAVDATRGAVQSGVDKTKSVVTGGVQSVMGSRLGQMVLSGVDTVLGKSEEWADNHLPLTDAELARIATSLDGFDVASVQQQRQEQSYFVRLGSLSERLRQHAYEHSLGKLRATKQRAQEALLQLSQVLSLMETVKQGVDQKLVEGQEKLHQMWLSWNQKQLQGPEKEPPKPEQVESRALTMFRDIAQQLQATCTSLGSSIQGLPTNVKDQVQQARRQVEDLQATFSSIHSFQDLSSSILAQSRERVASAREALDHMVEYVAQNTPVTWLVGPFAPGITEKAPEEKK
UniProt Q9UKY4: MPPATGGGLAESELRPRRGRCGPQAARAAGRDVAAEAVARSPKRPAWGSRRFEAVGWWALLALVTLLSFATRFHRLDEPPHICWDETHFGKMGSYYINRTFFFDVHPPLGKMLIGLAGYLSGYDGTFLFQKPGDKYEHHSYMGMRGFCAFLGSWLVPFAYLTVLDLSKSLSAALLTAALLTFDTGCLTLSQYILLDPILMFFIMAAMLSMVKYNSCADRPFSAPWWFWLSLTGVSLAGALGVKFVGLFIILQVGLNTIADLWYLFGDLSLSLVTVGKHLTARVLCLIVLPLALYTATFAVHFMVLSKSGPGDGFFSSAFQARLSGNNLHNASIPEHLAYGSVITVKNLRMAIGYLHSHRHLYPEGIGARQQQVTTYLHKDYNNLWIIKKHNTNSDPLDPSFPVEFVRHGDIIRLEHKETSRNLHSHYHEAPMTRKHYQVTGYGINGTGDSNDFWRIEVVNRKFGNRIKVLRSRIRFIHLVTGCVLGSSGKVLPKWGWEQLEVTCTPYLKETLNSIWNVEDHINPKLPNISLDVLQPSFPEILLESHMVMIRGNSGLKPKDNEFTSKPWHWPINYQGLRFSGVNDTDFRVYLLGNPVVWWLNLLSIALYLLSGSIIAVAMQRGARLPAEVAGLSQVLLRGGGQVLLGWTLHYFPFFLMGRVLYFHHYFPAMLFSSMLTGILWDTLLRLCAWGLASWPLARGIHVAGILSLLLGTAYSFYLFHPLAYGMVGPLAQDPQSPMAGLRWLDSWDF

[2] = compound: CC[C@@H]1C(=O)N(C)c2cnc(Nc3ccc(C(=O)N[C@H]4CC[C@H](N5CCN(CC6CC6)CC5)CC4)cc3OC)nc2N1C(C)C [volasertib]
In short: as §1

[3] = compound: CC[C@H](C)N1C=C(C2=C(C=C(C=C21)C3=CN=C(C=C3)N4CCNCC4)C(=O)NCC5=C(C=C(NC5=O)C)C)C
In short: as §1

[4] = compound: CC[C@H](C)[C@@H](C(=O)N[C@@H]([C@@H](C)O)C(=O)N[C@@H](CC(C)C)C(=O)[C@]1(CO1)C)NC(=O)[C@H]([C@@H](C)CC)N(C)C(=O)C [epoxomicin]
In short: as §1

[5] = compound: CCn1cc(-c2ccnc3[nH]c(-c4cccc(CN(C)C)c4)cc23)c(-c2ccc(NC(=O)N(C)C)cc2)n1
In short: as §1

[6] = compound: CN(C)CC(=O)Nc1ccc2[nH]c(=O)c3ccccc3c2c1
In short: as §1

[7] = compound: CN1C2=C(C3=C1C(=O)N(N=C3)CC4=CC(=CC=C4)N)SC(=C2)S(=O)C
In short: as §1

[8] = compound: CN1CCC(CNc2ccc3ncc(-c4cccc(OC(F)(F)F)c4)n3n2)CC1
In short: as §1

[9] = compound: CN1CCN(CCOc2cc(OC3CCOCC3)c3c(Nc4c(Cl)ccc5c4OCO5)ncnc3c2)CC1 [saracatinib]
In short: as §1

[10] = compound: CN1CCN(c2nc(C3=C(c4c[nH]c5ccccc45)C(=O)NC3=O)c3ccccc3n2)CC1 [sotrastaurin]
In short: as §1

[11] = compound: CN1CCc2c(c3ccccc3n2Cc2ccc(C(=O)NO)cc2)C1 [Tubastatin A]
In short: as §1

[12] = compound: CNC(=O)C1=CC=CC=C1NC2=NC(=NC=C2Cl)NC3=C(C=C(C=C3)N4CCOCC4)OC
In short: as §1

[13] = compound: CNC(=O)c1ccc(Nc2ncc(C(F)(F)F)c(NCc3nccnc3N(C)S(C)(=O)=O)n2)cc1 [defactinib]
In short: as §1

[14] = compound: CNCc1ccc(-c2[nH]c3cc(F)cc4c3c2CCNC4=O)cc1 [rucaparib]
In short: as §1

[15] = compound: CNc1nc(-c2ccc3c(N)n[nH]c3c2)cc(N2C[C@@H](C(=O)NC3CCCCC3)CC[C@H]2C)n1
In short: as §1

[16] = compound: COC(=O)N[C@@H](C)CNc1nccc(-c2cn(C(C)C)nc2-c2cc(Cl)cc(NS(C)(=O)=O)c2F)n1 [encorafenib]
In short: as §1

[17] = compound: COC(=O)[C@H](CCSC)NC(=O)C1=C(C=C(C=C1)NC[C@H](CS)N)C2=CC=CC=C2
In short: as §1

[18] = compound: CCn1c(C(=O)N(C2CC2)C2CC2)cc2c3c(ncn3C)c(Nc3cc(C)n(C)n3)nc21
In short: as §1

[19] = compound: CN(CCOC1=CC=C(C=C1)C[C@H]2C(=O)NC(=O)S2)C3=CC=CC=N3 (racemic) [rosiglitazone]
In short: as §1

[20] = compound: CN1CC[C@H](c2c(O)cc(O)c3c(=O)cc(-c4ccccc4Cl)oc23)[C@H](O)C1 [alvocidib]
In short: as §1

Measured: log2 fold change

POLR3K (UniProt Q9Y2Y1)
inactive: [1] -0.077 | [2] 0.056 | [3] -0.018 | [4] 0.067 | [5] 0.038 | [6] -0.048 | [7] -0.012 | [8] -0.01 | [9] 0.052 | [10] -0.049 | [11] 0.044 | [12] -0.035 | [13] -0.086 | [14] 0.089 | [15] -0.098 | [16] -0.019 | [17] 0.015

PLEKHM2 (UniProt Q8IWE5)
active: [8] -0.357
inactive: [1] -0.127 | [2] -0.177 | [3] 0.009 | [4] 0.037 | [5] -0.175 | [6] 0.003 | [7] -0.04 | [9] -0.002 | [10] -0.047 | [11] 0.029 | [12] -0.215 | [13] -0.054 | [14] -0.087 | [15] -0.019 | [16] 0.058 | [17] -0.014

POLR2F (UniProt P61218)
inactive: [2] 0.12 | [3] -0.216 | [4] 0.201 | [18] -0.01 | [5] -0.051 | [6] 0.043 | [19] 0.008 | [7] 0.049 | [8] 0.001 | [9] -0.029 | [10] -0.062 | [20] -0.019 | [11] 0.063 | [12] 0.063 | [13] 0.034 | [15] -0.197 | [17] 0.026

POC1A (UniProt Q8NBT0)
inactive: [1] -0.039 | [6] 0.076 | [19] 0.088 | [7] -0.135 | [9] -0.251 | [20] -0.008 | [11] 0.012 | [13] 0.123 | [14] 0.379 | [15] 0.197 | [16] -0.022 | [17] 0.052

PLPP6 (UniProt Q8IY26)
inactive: [2] -0.001 | [3] -0.083 | [4] 0.039 | [18] -0.183 | [5] -0.032 | [6] -0.116 | [19] 0.003 | [7] -0.025 | [8] 0.155 | [9] -0.134 | [10] 0.039 | [20] 0.121 | [11] -0.084 | [12] -0.064 | [13] -0.141 | [15] -0.137 | [17] 0.107

POF1B isoform 1 (UniProt Q8WVV4)
inactive: [1] 1.32 | [3] 0.02 | [6] 0.279 | [19] -0.003 | [7] -0.127 | [9] -0.349 | [11] -0.298 | [13] -0.067 | [14] -0.305 | [15] -0.26 | [16] -0.154 | [17] -0.12

PNPLA4 (UniProt P41247)
inactive: [1] -0.152 | [2] -0.093 | [3] -0.039 | [6] -0.004 | [7] 0.126 | [9] -0.267 | [10] -0.091 | [11] 0.007 | [12] 0.058 | [13] -0.047 | [14] 0 | [15] 0.17 | [16] -0.343 | [17] -0.011

POLR2M (UniProt P0CAP2)
inactive: [1] 0.084 | [2] 0.026 | [3] 0.013 | [4] -0.018 | [5] 0.034 | [6] 0.004 | [7] -0.028 | [8] 0.037 | [9] 0.061 | [10] 0.019 | [11] 0.005 | [12] -0.015 | [13] 0.041 | [14] 0.05 | [15] -0.021 | [16] 0.092 | [17] 0.017

POLR2J (UniProt P52435)
inactive: [1] -0.071 | [3] -0.062 | [4] 0.262 | [18] -0.151 | [5] 0.019 | [19] 0.56 | [7] 0.057 | [8] 0.083 | [9] -0.025 | [20] -0.139 | [12] 0.017 | [14] 0.083 | [15] -0.332 | [16] -0.014

POLR1D (UniProt P0DPB5)
inactive: [1] 0.213 | [2] 0 | [4] -0.102 | [18] 0.085 | [5] 0.138 | [19] -0.11 | [8] 0.085 | [10] 0.118 | [20] 0.216 | [11] 0.051 | [12] -0.067 | [14] 0.123 | [16] 0.01

PLOD2 isoform 2 (UniProt O00469)
inactive: [1] 0.111 | [2] 0.01 | [7] 0.115 | [9] -0.024 | [14] -0.126 | [15] -0.101 | [16] -0.199

POLR2C (UniProt P19387)
inactive: [1] 0.059 | [2] -0.187 | [3] 0.017 | [4] 0.075 | [6] 0.006 | [7] -0.04 | [9] -0.096 | [10] -0.015 | [11] -0.049 | [12] -0.043 | [13] 0.133 | [14] 0.059 | [15] 0.03 | [16] 0.002 | [17] -0.045

POLA2 (UniProt Q14181)
active: [2] -0.328
inactive: [1] -0.114 | [3] 0.051 | [4] 0.022 | [5] -0.109 | [6] 0.1 | [7] -0.057 | [8] -0.22 | [9] 0.035 | [10] -0.055 | [11] 0.051 | [12] 0.096 | [13] -0.254 | [14] -0.125 | [15] 0.039 | [16] 0.06 | [17] -0.038

PMS2 (UniProt P54278)
inactive: [1] 0.129 | [4] 0.079 | [18] -0.034 | [6] 0.007 | [7] 0.085 | [9] 0.31 | [10] 0.258 | [20] -0.06 | [12] 0.261 | [13] -0.109 | [14] -0.842 | [15] 0.088 | [16] 0.201 | [17] 0.093

POGZ (UniProt Q7Z3K3)
inactive: [1] -0.077 | [2] -0.293 | [4] 0.08 | [5] -0.192 | [6] 0.07 | [7] 0.006 | [8] 0.063 | [9] -0.134 | [10] -0.186 | [11] -0.071 | [12] 0.056 | [13] -0.162 | [14] 0.196 | [15] 0.136 | [16] -0.02 | [17] -0.043

PLIN3 isoform 2 (UniProt O60664)
inactive: [1] -0.044 | [2] -0.073 | [4] -0.218 | [19] -0.079 | [10] 0.317 | [14] 0.194 | [16] -0.206

PLEKHO2 (UniProt Q8TD55)
inactive: [1] -0.157 | [2] -0.192 | [3] 0.104 | [18] -0.037 | [5] -0.055 | [6] -0.026 | [19] 0.06 | [8] -0.121 | [20] -0.02 | [11] 0.13 | [12] -0.117 | [13] -0.053 | [14] 0.057 | [16] 0.112 | [17] -0.108

Five consecutive entries out of the list so far:
POLR1D (UniProt P0DPB5)
inactive: [1] 0.213 | [2] 0 | [4] -0.102 | [18] 0.085 | [5] 0.138 | [19] -0.11 | [8] 0.085 | [10] 0.118 | [20] 0.216 | [11] 0.051 | [12] -0.067 | [14] 0.123 | [16] 0.01

PLOD2 isoform 2 (UniProt O00469)
inactive: [1] 0.111 | [2] 0.01 | [7] 0.115 | [9] -0.024 | [14] -0.126 | [15] -0.101 | [16] -0.199

POLR2C (UniProt P19387)
inactive: [1] 0.059 | [2] -0.187 | [3] 0.017 | [4] 0.075 | [6] 0.006 | [7] -0.04 | [9] -0.096 | [10] -0.015 | [11] -0.049 | [12] -0.043 | [13] 0.133 | [14] 0.059 | [15] 0.03 | [16] 0.002 | [17] -0.045

POLA2 (UniProt Q14181)
active: [2] -0.328
inactive: [1] -0.114 | [3] 0.051 | [4] 0.022 | [5] -0.109 | [6] 0.1 | [7] -0.057 | [8] -0.22 | [9] 0.035 | [10] -0.055 | [11] 0.051 | [12] 0.096 | [13] -0.254 | [14] -0.125 | [15] 0.039 | [16] 0.06 | [17] -0.038

PMS2 (UniProt P54278)
inactive: [1] 0.129 | [4] 0.079 | [18] -0.034 | [6] 0.007 | [7] 0.085 | [9] 0.31 | [10] 0.258 | [20] -0.06 | [12] 0.261 | [13] -0.109 | [14] -0.842 | [15] 0.088 | [16] 0.201 | [17] 0.093

Further entries

POMT2 (UniProt Q9UKY4)
inactive: [1] 0.029 | [2] 0.027 | [6] -0.033 | [19] 0.034 | [7] 0.12 | [9] -0.043 | [20] -0.013 | [11] 0.144 | [13] 0.02 | [14] -0.084 | [15] 0.06 | [16] 0.088 | [17] -0.003

PPHLN1 (UniProt Q8NEY8)
inactive: [1] 0.018 | [2] -0.059 | [18] -0.051 | [5] 0.109 | [6] -0.216 | [19] -0.04 | [7] 0.216 | [8] -0.163 | [9] -0.174 | [12] 0.014 | [13] 0.061 | [14] 0.053 | [15] -0.03 | [16] -0.122 | [17] 0.071

— the supplement of paper PMC10849652
